Binding data for 3 molecules are collected here from paper PMC12442378, “SmsB-SmsC machinery in Thermococcus kodakarensis functions as an archaeal scaffold mediating Fe-S cluster assembly” (Applied and Environmental Microbiology, 2025).

The target of experiment [1] is T1, Tk-SmsB2C2 complex (Thermococcus kodakarensis) (UniProt Q5JG67+Q5JG66).
T1 sequence 1: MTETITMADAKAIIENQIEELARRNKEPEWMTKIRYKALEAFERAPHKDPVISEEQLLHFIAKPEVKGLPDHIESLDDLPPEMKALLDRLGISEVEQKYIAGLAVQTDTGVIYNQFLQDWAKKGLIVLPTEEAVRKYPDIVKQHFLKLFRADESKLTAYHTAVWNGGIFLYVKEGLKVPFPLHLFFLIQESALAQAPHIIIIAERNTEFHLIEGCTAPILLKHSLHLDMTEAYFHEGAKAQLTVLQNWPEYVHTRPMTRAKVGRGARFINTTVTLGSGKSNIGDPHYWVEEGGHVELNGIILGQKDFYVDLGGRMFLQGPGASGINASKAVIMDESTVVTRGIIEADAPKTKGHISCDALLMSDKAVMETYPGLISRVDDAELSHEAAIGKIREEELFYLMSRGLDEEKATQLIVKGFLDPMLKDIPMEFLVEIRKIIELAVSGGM
T1 sequence 2: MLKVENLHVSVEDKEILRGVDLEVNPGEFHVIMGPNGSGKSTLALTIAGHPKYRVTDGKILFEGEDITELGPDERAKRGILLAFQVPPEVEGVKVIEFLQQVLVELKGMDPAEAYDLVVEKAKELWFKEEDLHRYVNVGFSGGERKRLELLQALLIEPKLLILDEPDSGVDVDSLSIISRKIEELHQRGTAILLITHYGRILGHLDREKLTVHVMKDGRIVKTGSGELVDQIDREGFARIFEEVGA
The experiment in a line: SEC; gel filtration of Tk-CSD alone and of its mixtures with Tk-SmsB, Tk-SmsC or both, 30 uM of each protein; fractions analysed by SDS-PAGE; both purified. Background: SEC sorts molecules by how far they enter the pores of the column.

Experiment [2] has as its target T2, Tk-SmsB (TK0730 protein) with a 6x His tag at its N-terminus (Thermococcus kodakarensis) (UniProt Q5JG67).
T2 sequence: T1 sequence 1
The description is as above.

In experiment [3] the target is T3, Tk-SmsC (TK0731 protein), recombinant (Thermococcus kodakarensis) (UniProt Q5JG66).
T3 sequence: T1 sequence 2
The description is as above.

The target in experiment [4] is T2, Tk-SmsB (TK0730 protein) with a 6x His tag at its N-terminus (Thermococcus kodakarensis). The experiment in a line: pull-down; affinity chromatography: mixture of Tk-CSD and His-tagged Tk-SmsB (30 uM each, 200 uL) on a His GraviTrap column; wash and eluate analysed by SDS-PAGE; both purified.
Experiment [5] shares this target. Description: pull-down; purified His-tagged Tk-SmsB (100 ug, with or without equimolar Tk-SmsC) as bait, KU216 cell lysate (10 mg protein) as prey; 60 C for 30 min; His GraviTrap, washes with 20 and 50 mM imidazole, elution with 500 mM imidazole; SDS-PAGE; only the target purified.
For experiment [6], the target named is T3, Tk-SmsC (TK0731 protein), recombinant (Thermococcus kodakarensis). Description: SEC; Superdex 200 Increase 10/300 GL; 50 mM HEPES pH 7.5, 0.15 M NaCl; Tk-SmsB 40 uM alone, Tk-SmsC 72 uM alone, or mixture of 40 uM each; peak fraction analysed by SDS-PAGE and band densitometry; both purified.

No constants are given. Whether binding was seen depends on the method and setting. For part of these data: Binding seen in cells or lysates may run through a third protein. Some results given as binding are weak or reduced against the parent protein; the word gives no strength. For part of these data: Tags and fused reporters may be left off the sequences shown.

B1: Tk-CSD (cysteine desulfurase of T. kodakarensis, TK1990 protein) (enzyme, Thermococcus kodakarensis, UniProt Q5JIJ0 1-399, looked up)
chain: MKIPDDIRKDIPLTSEVIYFDNTATSLTPKPVIEAMDEYYLKYRANVHRGVHRLSQIATHKYEESRKVVADFINAKFEEIVFTKNTSESLNLVALGLEHIFEKGDKIVTTPYEHHSDLLPWQRLAKKKGLRLEFIEGDLEGNLDLADAEKKIKGAKLVAVQHVSNALGVIHEVEELGKMAKEEGAIFVVDAAQSAGHMEVDVKKLYADFLGFSGHKGPMGPTGIGVLYINSEFFDVFEPPLIGGGTIEDVDLDSYKLAEPPERFEAGTPNIGGAIGLAAGIRYIERIGIEKIEKQEHKLVKRTTEGLDELEVPWYGPRNLKKHAGVVSFNVPPLHPHDVAAILDEHNIMVRSGHHCALPAMKKLGVEGTVRASFHVYNSVEEVETFLSVMENLIRGLRG
notes: cysteine desulfurase (SufS homolog) of Thermococcus kodakarensis, locus TK1990; coding region amplified from genomic DNA of strain KU216; theoretical monomer mass 44.4 kDa; Cloned NheI-EcoRI into pET-21a(+); Homodimer by gel filtration; source: E. coli BL21-CodonPlus(DE3)-RIL (pET1990), purified (heat treatment, anion exchange, gel filtration)
For the molecule B1, the binding result in experiment [1], in experiment [2], in experiment [3] and in experiment [4] was “no binding (tested: 30 µM of each protein)” throughout.

B2: Tk-SmsC, endogenous in the cell-free extract of T. kodakarensis (protein, UniProt Q5JG66 1-246)
chain: T1 sequence 2
Take B2: the binding entry in experiment [5] was “binds”.

B3: Tk-SmsC (TK0731 protein), recombinant (enzyme, Thermococcus kodakarensis, UniProt Q5JG66 1-246, looked up)
chain: T1 sequence 2
notes: SmsC (SufC homolog, ABC-type ATPase) of Thermococcus kodakarensis, locus TK0731; coding region amplified from genomic DNA of strain KU216; theoretical mass 27.5 kDa; Cloned NdeI-BamHI into pET-21a(+); Monomer by gel filtration; source: E. coli BL21-CodonPlus(DE3)-RIL (pET0731), purified (heat treatment, anion exchange, gel filtration)
On to B3, for which the binding entry in experiment [6] is “no binding (tested: 72 µM)”.
